Reference: publication PMC7052135
These are yes or no findings as the source states them, for the method shown. Binding seen in cells or lysates may run through a third protein. A yes stands for co-enrichment or nearness to the bait. Other partners may have been found.

By UniProt entry, the sequences of proteins in these tests, tags left out.
UniProt P42224: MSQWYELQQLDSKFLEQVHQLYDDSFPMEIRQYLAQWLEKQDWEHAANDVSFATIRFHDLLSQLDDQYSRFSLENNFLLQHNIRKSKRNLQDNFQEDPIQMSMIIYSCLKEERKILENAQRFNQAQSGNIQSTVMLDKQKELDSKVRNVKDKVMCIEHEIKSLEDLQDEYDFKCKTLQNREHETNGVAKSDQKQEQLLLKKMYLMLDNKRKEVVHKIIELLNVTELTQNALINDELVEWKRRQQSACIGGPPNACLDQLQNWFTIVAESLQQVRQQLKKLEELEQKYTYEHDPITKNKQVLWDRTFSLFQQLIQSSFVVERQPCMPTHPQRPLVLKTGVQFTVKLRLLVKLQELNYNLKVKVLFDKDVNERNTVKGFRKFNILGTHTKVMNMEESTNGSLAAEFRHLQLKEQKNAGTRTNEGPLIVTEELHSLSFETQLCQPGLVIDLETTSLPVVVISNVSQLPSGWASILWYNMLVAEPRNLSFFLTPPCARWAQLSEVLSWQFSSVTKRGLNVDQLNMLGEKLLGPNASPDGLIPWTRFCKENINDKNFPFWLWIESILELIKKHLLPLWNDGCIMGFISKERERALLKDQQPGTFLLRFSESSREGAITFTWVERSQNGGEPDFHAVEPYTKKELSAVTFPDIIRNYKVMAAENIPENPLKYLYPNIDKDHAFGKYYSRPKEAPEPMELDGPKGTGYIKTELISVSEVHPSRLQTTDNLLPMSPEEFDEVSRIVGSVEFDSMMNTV
UniProt Q96EP0: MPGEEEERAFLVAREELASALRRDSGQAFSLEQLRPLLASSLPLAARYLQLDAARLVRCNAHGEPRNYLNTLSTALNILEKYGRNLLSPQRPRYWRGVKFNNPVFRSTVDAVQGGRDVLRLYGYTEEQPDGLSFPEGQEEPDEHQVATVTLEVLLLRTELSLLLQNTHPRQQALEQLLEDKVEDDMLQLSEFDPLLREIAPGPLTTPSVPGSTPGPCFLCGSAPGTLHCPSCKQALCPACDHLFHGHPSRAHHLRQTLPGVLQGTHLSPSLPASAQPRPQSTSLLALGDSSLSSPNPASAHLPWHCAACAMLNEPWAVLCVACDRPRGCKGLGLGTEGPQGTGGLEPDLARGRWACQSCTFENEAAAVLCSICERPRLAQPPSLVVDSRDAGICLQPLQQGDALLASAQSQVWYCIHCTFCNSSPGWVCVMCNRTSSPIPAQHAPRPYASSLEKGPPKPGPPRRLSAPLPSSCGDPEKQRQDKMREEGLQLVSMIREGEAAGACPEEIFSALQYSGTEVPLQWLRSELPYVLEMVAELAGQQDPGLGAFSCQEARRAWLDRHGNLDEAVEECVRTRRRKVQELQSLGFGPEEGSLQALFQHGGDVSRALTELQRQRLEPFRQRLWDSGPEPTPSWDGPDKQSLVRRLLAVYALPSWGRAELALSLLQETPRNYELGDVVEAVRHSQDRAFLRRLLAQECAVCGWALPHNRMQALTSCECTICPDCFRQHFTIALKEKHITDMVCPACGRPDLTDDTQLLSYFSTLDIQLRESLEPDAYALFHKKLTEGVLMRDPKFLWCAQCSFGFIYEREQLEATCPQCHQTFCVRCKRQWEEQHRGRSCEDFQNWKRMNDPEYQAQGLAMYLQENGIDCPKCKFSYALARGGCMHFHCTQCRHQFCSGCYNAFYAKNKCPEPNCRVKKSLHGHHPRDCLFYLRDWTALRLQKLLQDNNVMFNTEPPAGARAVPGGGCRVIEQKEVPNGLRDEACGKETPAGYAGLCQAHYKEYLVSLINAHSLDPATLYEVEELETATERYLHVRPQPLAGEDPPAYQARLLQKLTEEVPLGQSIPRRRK

Molecular target: Flag-STAT1 (UniProt P42224)
Experiment: affinity purification with mass spectrometry; Flag-STAT1 as bait against control vectors; gel bands silver stained, digested with trypsin, Orbitrap Elite; cells not given

- binding: binds
Substance: endogenous HOIP (from UniProt Q96EP0 1-1072) (enzyme)
